In the assay the test system is L1210 leukemia ip in BDF1 mice, survival T/C. In words: NCI In Vivo Anticancer Drug Screen. Data for tumor model L1210 Leukemia (intraperitoneal) in B6D2F1 (BDF1) mice. The conditions noted are these: T/C endpoint: mean survival time, higher T/C = longer survival.
[1] abbreviates: dose: 200.0 mg/kg/injection, schedule: Q04DX002 (ip), vehicle: Klucel (hydroxypropylcellulose) (HPC).
Where [2] appears, read: dose: 400.0 mg/kg/injection, schedule: Q04DX002 (ip), vehicle: Klucel (hydroxypropylcellulose) (HPC).
[3] abbreviates: dose: 400.0 mg/kg/injection, schedule: Q01DX001 (ip), vehicle: saline with Tween-80.
Where [4] appears, read: dose: 400.0 mg/kg/injection, schedule: Q01DX001 (ip), vehicle: saline.
Setting [5] is: dose: 100.0 mg/kg/injection, schedule: Q01DX009 (ip), vehicle: saline with Tween-80.
Setting [6] is: dose: 200.0 mg/kg/injection, schedule: Q01DX009 (ip), vehicle: saline with Tween-80.
Where [7] appears, read: dose: 400.0 mg/kg/injection, schedule: Q04DX003 (ip), vehicle: saline.
Setting [8] is: dose: 50.0 mg/kg/injection, schedule: Q01DX009 (ip), vehicle: Klucel (hydroxypropylcellulose) (HPC).
Setting [9] is: dose: 400.0 mg/kg/injection, schedule: Q04DX003 (ip), vehicle: Klucel (hydroxypropylcellulose) (HPC).

The list is a part of this screen's results and no random one: it gathers tests that were run many times, whatever their T/C, doses with no T/C, and many T/C values between a quarter and a half above the control. Other doses and runs of a compound stand elsewhere. T/C: endpoint of the treated group in % of that of the vehicle group. Some entries give survivors of the animals treated and no T/C: the source holds a T/C of zero for them, seemingly a mark for toxic or unscored doses. Some survivor counts are full or nearly so, which does not show that the dose was tolerated: survival well below the control is almost never listed, so the zero probably covers shortened survival too. Counts of survivors are from the toxicity check (mostly the fifth day) where no day follows; animals may have died later. Schedules are NCI's codes, taken here to give the interval after Q, in days (D) or hours (H), and the number of doses after X. Some schedule codes hold Z or #, which are not explained here. Where survival is the endpoint, the PubChem record calls one and a half times the control and up active, and a quarter to a half above the control has no call in these data; cut-offs in other NCI protocols can differ. Some doses were run more than once; the values are given in rising order.

Consider `Cc1ccc(SNc2ccccc2)cc1`, for which the survivor count (dose: 400.0 mg/kg/injection, schedule: Q04DX003 (ip), vehicle: saline with Tween-80) was 6 of 6.

As for `CC12C=CC(CC1)C2(C)C` (stereo not given), under “dose: 400.0 mg/kg/injection, schedule: Q01DX009 (ip), vehicle: saline”, the survivor count was 6 of 6.

For `CCOC(=O)C(NC(C)=O)(C(=O)OCC)C(C)C(=O)c1ccc(OC)c(OC)c1OCc1ccccc1` (stereo not given), the survivor count (dose: 12.5 mg/kg/injection, schedule: Q01DX009 (ip), vehicle: saline) is given as 6 of 6; the survivor count (dose: 25.0 mg/kg/injection, schedule: Q01DX009 (ip), vehicle: saline) was 6 of 6; the survivor count (dose: 50.0 mg/kg/injection, schedule: Q01DX009 (ip), vehicle: saline) is given as 6 of 6; the survivor count (dose: 100.0 mg/kg/injection, schedule: Q01DX009 (ip), vehicle: saline) is given as 4 of 6; the survivor count (dose: 200.0 mg/kg/injection, schedule: Q01DX009 (ip), vehicle: saline) is 6 of 6.

Turning to `Nc1nc(N)nc(-c2cccc(Cl)c2)n1`, the survivor count was 0 of 3 under setting [1] and 0 of 3 under setting [2].

Regarding `Nc1cccc(CCCCc2ccccc2)c1`, the survivor count under setting [3] was 1 of 6.

As for `Nc1nc(=O)n(C2OC(CO)C(O)C2O)c2nc(I)[nH]c12` (stereo not given), for the setting “dose: 200.0 mg/kg/injection, schedule: Q01DX005 (ip), vehicle: saline”, the survivor count is reported as 1 of 4.

For the compound `CCC(C)NC1=CC(=O)c2ccccc2C1=O` (stereo not given), under setting [3], the survivor count was 0 of 6.

Consider `CC1(C)CCC(C)(C)c2c1ccc(O)c2Sc1c(O)ccc2c1C(C)(C)CCC2(C)C`, for which the survivor count was 6 of 6 (dose: 200.0 mg/kg/injection, schedule: Q01DX001 (ip), vehicle: saline) and 6 of 6 under setting [4].

For `CC1(C)/C(=N\N=C2/C3CCC(C3)C2(C)C)C2CCC1C2`, the survivor count runs as follows: under setting [5], 6 of 6; under setting [6], 0 of 6; under setting [7], 0 of 6.

On to `N#CC(C(=O)Nc1cccc(C(F)(F)F)c1)C(=S)Nc1ccccc1Cl` (stereo not given), for which the survivor count by setting is: (dose: 200.0 mg/kg/injection, schedule: Q04DX002 (ip), vehicle: saline with Tween-80) 1 of 3; (dose: 400.0 mg/kg/injection, schedule: Q04DX002 (ip), vehicle: saline with Tween-80) 1 of 3.

Take `O=C1CCCc2ccc([N+](=O)[O-])cc21`: the survivor count under setting [7] is 5 of 6.

Take `Cc1ccc(C)c(NC(=O)Nc2ccccc2C)c1`: the survivor count reads like this: under setting [8], 6 of 6; (dose: 100.0 mg/kg/injection, schedule: Q01DX009 (ip), vehicle: Klucel (hydroxypropylcellulose) (HPC)) 6 of 6; (dose: 400.0 mg/kg/injection, schedule: Q01DX009 (ip), vehicle: Klucel (hydroxypropylcellulose) (HPC)) 5 of 6.

In the case of `Cc1ccc(Cc2c(C=O)nc(N)[nH]c2=O)c2ccccc12`, the survivor count under setting [2] is reported as 1 of 3.

Consider `NS(=O)(=O)c1ccc(NC(=S)NC(=O)c2cccc([N+](=O)[O-])c2)cc1`, for which the survivor count (dose: 200.0 mg/kg/injection, schedule: Q04DX003 (ip), vehicle: saline with Tween-80) is recorded as 6 of 6.

Consider `CCN(CC)CCCC(C)Nc1c(C)cnc2cc(Cl)c(C)cc12` (stereo not given), for which the survivor count under setting [4] is on record as 0 of 4.

For `CC(C)Cn1cnc2c(=S)nc(N)[nH]c21`, the T/C runs as follows: (dose: 14.0 mg/kg/injection, schedule: Q01DX015 (ip), vehicle: other) 135 % of control; (dose: 21.0 mg/kg/injection, schedule: Q01DX015 (ip), vehicle: other) 136 % of control; (dose: 29.0 mg/kg/injection, schedule: Q01DX015 (ip), vehicle: carboxymethylcellulose (CMC)) 132 % of control; (dose: 30.0 mg/kg/injection, schedule: Q01DX015 (ip), vehicle: carboxymethylcellulose (CMC)) 132 % of control; (dose: 33.0 mg/kg/injection, schedule: Q01DX001 (ip), vehicle: carboxymethylcellulose (CMC)) 138 % of control; (dose: 36.0 mg/kg/injection, schedule: Q01DX015 (ip), vehicle: other) 129 % of control. Also, the T/C reads like this: (dose: 50.0 mg/kg/injection, schedule: Q01DX001 (ip), vehicle: carboxymethylcellulose (CMC)) 129 and 138 % of control; (dose: 88.8 mg/kg/injection, schedule: Q01DX001 (ip), vehicle: carboxymethylcellulose (CMC)) 134 % of control; (dose: 100.0 mg/kg/injection, schedule: Q01DX001 (ip), vehicle: other) 137 % of control; (dose: 133.0 mg/kg/injection, schedule: Q01DX001 (ip), vehicle: carboxymethylcellulose (CMC)) 137 % of control; (dose: 200.0 mg/kg/injection, schedule: Q01DX001 (ip), vehicle: other) 128 % of control; (dose: 300.0 mg/kg/injection, schedule: Q01DX001 (ip), vehicle: carboxymethylcellulose (CMC)) 132 % of control. In addition, under “dose: 400.0 mg/kg/injection, schedule: Q01DX001 (ip), vehicle: other”, the T/C was 130 % of control.

Consider `N=C(N)c1ncn(C2CC(O)C(CO)O2)c1N` (stereo not given), for which, under setting [4], the survivor count is given as 1 of 6.

As to `O=[n+]1c2c(n([O-])c3ccccc31)-c1cccc3cccc-2c13`, the survivor count is, setting by setting: (dose: 75.0 mg/kg/injection, schedule: Q01DX Z (ip), vehicle: methylcellulose (MC)) 6 of 6; (dose: 160.0 mg/kg/injection, schedule: Q01DX Z (ip), vehicle: methylcellulose (MC)) 0 of 6; (dose: 240.0 mg/kg/injection, schedule: Q01DX Z (ip), vehicle: methylcellulose (MC)) 0 of 6; (dose: 360.0 mg/kg/injection, schedule: Q01DX Z (ip), vehicle: methylcellulose (MC)) 0 of 6; under setting [4], 2 of 6; (dose: 540.0 mg/kg/injection, schedule: Q01DX Z (ip), vehicle: methylcellulose (MC)) 0 of 6.

As to `CCOC(=O)CC1NCCC2C1CCC(OC)C2OC` (stereo not given), the survivor count is, setting by setting: under setting [5], 6 of 6; under setting [9], 3 of 6.

For `CCCCCCCCCCCCCCCCOc1ccc(CC)cc1`, the survivor count is, setting by setting: (dose: 200.0 mg/kg/injection, schedule: Q04DX003 (ip), vehicle: Klucel (hydroxypropylcellulose) (HPC)) 5 of 6; under setting [9], 6 of 6.

As for `NC(C[Se][Se]CC(N)C(=O)O)C(=O)O` (stereo not given), the survivor count (dose: 25.0 mg/kg/injection, schedule: Q04DX002 (ip), vehicle: saline) is on record as 0 of 3 and the survivor count (dose: 50.0 mg/kg/injection, schedule: Q04DX002 (ip), vehicle: saline) was 0 of 3.

Turning to `NC(CCl)=NCCCN1CCCCC1`, the survivor count runs as follows: under setting [8], 0 of 3; (dose: 100.0 mg/kg/injection, schedule: Q04DX002 (ip), vehicle: Klucel (hydroxypropylcellulose) (HPC)) 0 of 3; under setting [1], 0 of 3; under setting [2], 3 of 3.

As for `CCOC(=O)C(Br)CCCC(Br)C(=O)OCC` (stereo not given), the survivor count under setting [6] was 5 of 6.

For the compound `COC1CCC(OC2CC(C3(C)CCC4(CC(O)C(C)C(C(C)/C=C(\C)C(=O)C(C)CC(C)C(=O)O)O4)O3)OC3(OC(C4OC(O)(CO)C(C)CC4C)CC3C)C2C)OC1C` (stereo not given), the survivor count runs as follows: (dose: 0.46 mg/kg/injection, schedule: Q04DX003 (ip), vehicle: saline) 6 of 6; (dose: 0.93 mg/kg/injection, schedule: Q04DX003 (ip), vehicle: saline) 5 of 6; (dose: 1.87 mg/kg/injection, schedule: Q04DX003 (ip), vehicle: saline) 0 of 6; (dose: 3.75 mg/kg/injection, schedule: Q01DX001 (ip), vehicle: saline) 0 of 6; (dose: 7.5 mg/kg/injection, schedule: Q01DX001 (ip), vehicle: saline) 0 of 6; (dose: 15.0 mg/kg/injection, schedule: Q01DX001 (ip), vehicle: saline) 0 of 6. Also, the survivor count (dose: 30.0 mg/kg/injection, schedule: Q01DX001 (ip), vehicle: saline) is 0 of 6.

In the case of `CC12CCC(O)CC1CCC1C2CCC2(C)C1CC1NC12` (stereo not given), the survivor count (dose: 400.0 mg/kg/injection, schedule: Q01DX001 (sc), vehicle: steroid suspending solution) was 3 of 6.

Source of the values: PubChem BioAssay AID248 (DTP/NCI, 2004).
